Assay results published in the supplement of paper PMC10663445.
Where a name gives a salt, the structure may show the parent alone. Some of the results follow. Single values are uncertain, as repeats are few or missing.

Test system: hsa-miR-132-3p
Assay: miR-132-3p level in NGN2-iNs after compound treatment (TMM-normalised, ComBat batch-corrected) (batch-corrected normalised expression (arbitrary units)); higher = higher miR-132-3p expression
Settings: 10 µM; 24 h; human iPSC-derived NGN2 neurons (BR43)

Row | SMILES | miR-132-3p level in NGN2-iNs
1 | CNS(=O)(=O)CCc1ccc2[nH]cc(C3CCN(C)CC3)c2c1 [Naratriptan HCl] | 0.667
2 | C#Cc1cccc(Nc2ncnc3cc4c(cc23)OCCOCCOCCO4)c1 [Icotinib] | -0.424
3 | Cc1ncc(CO)c(CO)c1O [Pyridoxine HCl] | -0.75
4 | C[C@H](O)[C@H](O)[C@@H](O)[C@@H](O)C=O [L-(+)-Rhamnose Monohydrate] | -1.78
5 | CC1(C)[C@H](C(=O)O)N2C(=O)C[C@H]2S1(=O)=O [Sulbactam] | -0.901
6 | CC1(C)[C@H](C(=O)O)N2C(=O)C[C@H]2S1(=O)=O [Sulbactam sodium] | -0.0324
7 | CC(C)c1cc(-c2n[nH]c(=O)n2-c2ccc3c(ccn3C)c2)c(O)cc1O [Ganetespib (STA-9090)] | -0.197
8 | CC(=O)O[C@]1(C(C)=O)CC[C@H]2[C@@H]3C=C(Cl)C4=CC(=O)[C@@H]5C[C@@H]5[C@]4(C)[C@H]3CC[C@@]21C [Cyproterone Acetate] | -0.786
9 | Cc1cc(C)c(-c2csc(NC(=O)c3ccccc3)n2)c(C)c1 | -1.01
10 | Cn1cc(-c2cnn3c(N)c(Br)c([C@@H]4CCCNC4)nc23)cn1 | 0.619
11 | C=CC(=O)Nc1cccc(Nc2nc(Nc3ccc(Oc4ccnc(C(=O)NC)c4)cc3)ncc2F)c1 | -0.565
12 | Cc1[nH]c2ccccc2c1C1=C(NCCc2ccc(F)cc2)C(=O)N(C)C1=O | 0.87
13 | N=C(N)Nc1ccc(C(=O)Oc2ccc3cc(C(=N)N)ccc3c2)cc1 [Nafamostat Mesylate] | -1.29
14 | N[C@@H](Cc1c[nH]c2ccc(O)cc12)C(=O)O [5-hydroxytryptophan (5-HTP)] | -0.765
15 | CC(C)n1nc(-c2ccc3oc(N)nc3c2)c2c(N)ncnc21 [Sapanisertib (INK 128, MLN0128)] | 0.00523
16 | CC(=O)O[C@]1(C(C)=O)CC[C@H]2[C@@H]3CCC4=CC(=O)CCC4=C3[C@@H](c3ccc(N(C)C)cc3)C[C@@]21C [Ulipristal Acetate (CDB 2914)] | 2.03
17 | COc1cc2nc(N(C)CCCNC(=O)C3CCCO3)nc(N)c2cc1OC (configuration not stated) [Alfuzosin HCl] | -0.0099
18 | O=C(Nc1cccc2cccnc12)c1ccc(N2C(=O)C3C4C=CC(C4)C3C2=O)cc1 (stereo not drawn) [IWR-1-endo] | -0.276
19 | O=C(O)/C=C/c1ccc(O)c(O)c1 [Caffeic Acid] | -0.586
20 | CCOc1nc2cccc(C(=O)OCc3oc(=O)oc3C)c2n1Cc1ccc(-c2ccccc2-c2noc(=O)[nH]2)cc1 [Azilsartan Medoxomil] | 0.78
21 | CN1c2cc(O)c(N=NC(N)=O)cc2CC1S(=O)(=O)O (configuration not stated) [Carbazochrome sodium sulfonate (AC-17)] | 2.09
22 | C#CCN[C@@H]1CCc2ccccc21 [Rasagiline Mesylate] | -0.709
23 | COc1cc(OC2CCN(C)CC2)ccc1Nc1ncc2c(n1)n(C1CCCC1)c(=O)n2C | -0.344
24 | CC(NC(=O)c1ccccc1/N=C/c1c(O)ccc2ccccc12)c1ccccc1 (configuration not stated) [Sirtinol] | -1.49

Reprinted, entries 6 to 16
Row | SMILES | miR-132-3p level in NGN2-iNs
6 | CC1(C)[C@H](C(=O)O)N2C(=O)C[C@H]2S1(=O)=O [Sulbactam sodium] | -0.0324
7 | CC(C)c1cc(-c2n[nH]c(=O)n2-c2ccc3c(ccn3C)c2)c(O)cc1O [Ganetespib (STA-9090)] | -0.197
8 | CC(=O)O[C@]1(C(C)=O)CC[C@H]2[C@@H]3C=C(Cl)C4=CC(=O)[C@@H]5C[C@@H]5[C@]4(C)[C@H]3CC[C@@]21C [Cyproterone Acetate] | -0.786
9 | Cc1cc(C)c(-c2csc(NC(=O)c3ccccc3)n2)c(C)c1 | -1.01
10 | Cn1cc(-c2cnn3c(N)c(Br)c([C@@H]4CCCNC4)nc23)cn1 | 0.619
11 | C=CC(=O)Nc1cccc(Nc2nc(Nc3ccc(Oc4ccnc(C(=O)NC)c4)cc3)ncc2F)c1 | -0.565
12 | Cc1[nH]c2ccccc2c1C1=C(NCCc2ccc(F)cc2)C(=O)N(C)C1=O | 0.87
13 | N=C(N)Nc1ccc(C(=O)Oc2ccc3cc(C(=N)N)ccc3c2)cc1 [Nafamostat Mesylate] | -1.29
14 | N[C@@H](Cc1c[nH]c2ccc(O)cc12)C(=O)O [5-hydroxytryptophan (5-HTP)] | -0.765
15 | CC(C)n1nc(-c2ccc3oc(N)nc3c2)c2c(N)ncnc21 [Sapanisertib (INK 128, MLN0128)] | 0.00523
16 | CC(=O)O[C@]1(C(C)=O)CC[C@H]2[C@@H]3CCC4=CC(=O)CCC4=C3[C@@H](c3ccc(N(C)C)cc3)C[C@@]21C [Ulipristal Acetate (CDB 2914)] | 2.03

Next records:

Row | SMILES | miR-132-3p level in NGN2-iNs
25 | Cc1cccc(-c2[nH]c(C(C)(C)C)nc2-c2ccc3c(c2)OCO3)n1 | -1.61
26 | CC(C)(OCc1nn(Cc2ccccc2)c2ccccc12)C(=O)O [Bindarit (AF 2838)] | -1.22
27 | CC(C)NCC(O)COc1ccc(CCOCC2CC2)cc1 (configuration not stated) [Betaxolol] | 1.45
28 | CCc1nc(N)nc(N)c1-c1ccc(Cl)cc1 [Pyrimethamine] | 0.835
29 | Cc1c(C(=O)NN2CCCCC2)nn(-c2ccc(Cl)cc2Cl)c1-c1ccc(I)cc1 | 0.114
30 | CCN(C(=O)c1c(O)c2c(Cl)cccc2n(C)c1=O)c1ccccc1 [Laquinimod] | -0.935
31 | CN1CC(=O)N2[C@H](c3ccc4c(c3)OCO4)c3[nH]c4ccccc4c3C[C@@H]2C1=O [Tadalafil] | 0.167
32 | C[C@H]1c2cccc(O)c2C(=O)C2=C(O)[C@]3(O)C(=O)C(C(N)=O)=C(O)[C@@H](N(C)C)[C@@H]3[C@@H](O)[C@@H]21 [Doxycycline HCl] | -1.26
33 | COc1cc2c(c(OC)c1OC)-c1c(cc3c(c1OC)OCO3)CC(C)C(C)C2 (configuration not stated) [Schisandrin B (Sch B)] | -0.072
34 | O=C(NCC1(c2nc(-c3ccccc3)cs2)CCOCC1)c1cccc(-c2noc(C(F)(F)F)n2)c1 | -0.507
35 | O=C(O)C(=O)O.[NH-][C@@H]1CCCC[C@H]1[NH-].[Pt+2] [Oxaliplatin] | 0.211
36 | CC(C)C(=O)Oc1ccc(CO)cc1[C@H](CCN(C(C)C)C(C)C)c1ccccc1 [Fesoterodine Fumarate] | -0.0469
37 | Cc1ccc(NC(=O)c2ccc(CN3CCN(C)CC3)cc2)cc1Nc1nccc(-c2cccnc2)n1 [Imatinib Mesylate (STI571)] | 0.236
38 | Cc1ccc(NC(=O)c2ccc(CN3CCN(C)CC3)cc2)cc1Nc1nccc(-c2cccnc2)n1 [Imatinib (STI571)] | -0.971
39 | NS(=O)(=O)c1cc2c(cc1Cl)NC(C(Cl)Cl)NS2(=O)=O (configuration not stated) [Trichlormethiazide] | 0.197
40 | CN[C@@H]1[C@H](O)[C@H](NC)[C@H]2O[C@@]3(O)C(=O)C[C@@H](C)O[C@H]3O[C@@H]2[C@H]1O [Spectinomycin 2HCl] | -1.28
41 | COC(=O)C1=CO[C@@H](O[C@@H]2O[C@H](CO)[C@@H](O)[C@H](O)[C@H]2O)[C@@H]2C(CO)=CC[C@H]12 [Geniposide] | 1.03
42 | Cc1onc(-c2ccccc2Cl)c1C(=O)N[C@@H]1C(=O)N2[C@@H]1SC(C)(C)[C@@H]2C(=O)O [Cloxacillin Sodium] | 0.7
43 | C#Cc1cccc(Nc2ncnc3cc(OCCOC)c(OCCOC)cc23)c1 [Erlotinib HCl (OSI-744)] | 0.464
44 | COc1ccc(Cn2ccc3ccc(C(=O)NO)cc32)cc1 | -0.725
45 | CC1(C)O[C@H]2CC(=O)OC[C@]23[C@H]2CC[C@@]4(C)[C@H](c5ccoc5)OC(=O)[C@H]5O[C@]54[C@]2(C)C(=O)C[C@@H]13 [Limonin] | -0.0588
46 | NC(=O)c1cccc(-c2cc(Nc3ccc(OC(F)(F)F)cc3)ncn2)c1 | 1.29
47 | CCCCCCOC(=O)NC(=N)c1ccc(NCc2nc3cc(C(=O)N(CCC(=O)OCC)c4ccccn4)ccc3n2C)cc1 [Dabigatran Etexilate] | -0.528
